The campaign covered roughly 340,000 compounds. About 4,500 (1.3%) were called active. Inconclusive results, whose numbers are uncertain, are shown with a selection of clear calls. Calls follow the shape of the dose curve; as a rule, active = well fitted inhibition curve with a large enough effect; inconclusive = small, poorly fitted or top-dose-only effect, or another doubt; inactive = no such curve, though single readings can be large or run the other way. Potencies of inconclusive entries are doubtful fits and often do not repeat.
Each molecule was assayed against DNA polymerase beta (Homo sapiens) (UniProt P06746) (assay: qHTS Assay for Inhibitors of DNA Polymerase Beta). Conditions: Pol beta primer extension/strand displacement, fluorescence kinetic; activity change, negative = inhibition: at 114 µM (top of the series).
Method in brief: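 Pol beta (10 nM) and compounds were preincubated 15 min at room temperature, then 50 nM substrate (final) started primer extension/strand displacement. Reads were taken at 0 and 10 min; concentration-response data were fitted to a four-parameter Hill equation.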
% is scaled to controls: 0 for no effect and ±100 for the full control effect; potency is read from the fitted curve at half-maximal effect.

SMILES	Potency	activity change, negative = inhibition
CCN(CC)c1ccc(/C=C/C(=O)C2C(=O)C=C(C)OC2=O)cc1 (centres undefined)	inconclusive: 10 µM [inhibitor, full curve]	–
Cc1nn(CC(=O)NCCc2cccs2)c(=O)c2nn(-c3ccccc3)c(C)c12	inconclusive: 31.6 µM [inhibitor, partial curve]	–
Cc1cc(C)c2c(N)c3ccccc3nc2n1	active: 25.1 µM	–
CC(=O)Nc1ccc(C(=O)NNC(=O)CCc2ccccc2)cc1	inactive	–
CC(=O)N1c2ccc(S(=O)(=O)Nc3ccc(Cl)cc3C)cc2CC1C (centres undefined)	inactive	–
CC(C)C(=O)N1CCN(CCN2C(=O)c3cccc4cccc(c34)C2=O)CC1	active: 89.1 µM	–
Cc1cc(C)cc(NC(=O)C(OC(=O)c2ccc([N+](=O)[O-])o2)c2ccccc2)c1 (centres undefined)	inconclusive: 79.4 µM [inhibitor, single point]	–
Cc1cccc(NC(=O)CCS(=O)(=O)c2cc(Br)cc3c2N(C(=O)C2CC2)CC3)c1	inactive	–
Cc1ccc(CNC(=O)CC2Oc3ccc(Cl)cc3NC2=O)cc1 (centres undefined)	inconclusive: 39.8 µM [inhibitor, partial curve, poor fit]	–
O=C(Nc1ncc([N+](=O)[O-])s1)c1cccs1	inactive	–
O=C(NCCc1cnn(-c2ccccc2)c1)c1cc(COc2c(F)cccc2F)on1	inconclusive: 0.891 µM [inhibitor, full curve]	–
Cc1ccsc1CNC(=O)c1c(-c2ccccc2)noc1C	inconclusive: 39.8 µM [inhibitor, single point]	–
CC1(C)CC2CC(C)(CN2C(=O)c2cc(-c3ccc(F)cc3)on2)C1 (centres undefined)	inconclusive: 100 µM [inhibitor, single point]	–
CCOc1ccccc1C1C(C#N)=C(N)N(N(C)C)C2=C1C(=O)CCC2 (centres undefined)	inconclusive: 39.8 µM [inhibitor, single point]	–
Cc1ccc(/C=C/c2ccc(=O)n(Cc3ccc(Cl)cc3Cl)n2)cc1	inconclusive: 22.4 µM [inhibitor, partial curve, poor fit]	–
Cc1cc(-c2sccc2Br)nc(-n2cccc2)n1	inactive	–
CC(C)CC(=O)N(c1nnc(-c2cccnc2)s1)C1CCCC1	inconclusive: 89.1 µM [inhibitor, single point]	–
CN(C)c1cccc(C(=O)NCc2ccc3c(c2)OCO3)c1	inconclusive: 100 µM [inhibitor, single point]	–
O=C(CCCc1nc(-c2ccc(Cl)cc2)no1)Nc1cccnc1	inconclusive: 89.1 µM [inhibitor, single point]	–
O=C(O)C1CCCCC1C(=O)Nc1ccc(Cl)cc1 (centres undefined)	inconclusive: 39.8 µM [inhibitor, single point]	–
Cc1ccc(C(=O)N/C(=C/c2ccco2)C(=O)Nc2cccc(C(=O)O)c2)cc1	inactive	–
CCN(c1ccccc1)S(=O)(=O)c1c(-c2ccc(C)cc2)csc1C(=O)OC	inactive	–
O=c1nc2c(O)cccn2c2c1c(=O)[nH]c1ccccc12	inconclusive: 3.16 µM [inhibitor, full curve]	–

Sorted by length of the SMILES (low to high): part of the list above
SMILES	Potency	activity change, negative = inhibition
CCOc1ccccc1C1C(C#N)=C(N)N(N(C)C)C2=C1C(=O)CCC2 (centres undefined)	inconclusive: 39.8 µM [inhibitor, single point]	–
CC1(C)CC2CC(C)(CN2C(=O)c2cc(-c3ccc(F)cc3)on2)C1 (centres undefined)	inconclusive: 100 µM [inhibitor, single point]	–
Cc1cccc(NC(=O)CCS(=O)(=O)c2cc(Br)cc3c2N(C(=O)C2CC2)CC3)c1	inactive	–

Following part

SMILES	Potency	activity change, negative = inhibition
COc1ccccc1C(=O)Nc1ccc2oc(-c3cccc4c(Br)cccc34)nc2c1	–	inconclusive: -69.5% [inhibitor]
O=C(CCCN1C(=O)S/C(=C/C=C/c2ccccc2)C1=O)Nc1ccc(C(=O)O)cc1	inactive	–
CCCOc1ccc(/C=N/NC(=O)CN2CCCCC2)cc1OCC	inactive	–
O=C(NCC(c1ccc(F)cc1)N1CCOCC1)c1ccc(Br)o1 (centres undefined)	inconclusive: 4.47 µM [inhibitor, full curve, poor fit]	–
COc1ccc(C(=O)NCC(c2ccc(N(C)C)cc2)N2CCc3ccccc32)cc1OC (centres undefined)	inactive	–
COc1ccc(C2C(C(C)=O)=C(C)Nc3ncnn32)cc1OC (centres undefined)	inconclusive: 25.1 µM [inhibitor, partial curve]	–
COC(=O)CSc1nnc(NC(=O)C2CC(=O)N(c3ccc(F)cc3)C2)s1 (centres undefined)	inconclusive: 20 µM [inhibitor, full curve]	–
Cc1ccc(-c2nnc(Nc3ccc(C(=O)N(C)C)cc3)c3ccccc23)cc1S(=O)(=O)N(C)C	inactive	–
N#Cc1ccccc1Cn1cc(/C=N/Nc2ccc([N+](=O)[O-])cn2)c2ccccc21	inconclusive: 89.1 µM [inhibitor, single point]	–
COc1cc2ccccc2cc1C(=O)N(CCN(C)C)c1nc2c(OC)ccc(OC)c2s1	–	inconclusive: -39.9% [inhibitor]
Cc1ccc(-c2cc3c(N=O)c4ccccc4c-3n[nH]2)cc1	inconclusive: 3.98 µM [inhibitor, partial curve, poor fit]	–
CC(=O)Nc1cccc(NC(=O)CSc2ccc(-c3sc(-c4ccccc4)nc3C)nn2)c1	active: 5.62 µM	–
COc1cc(OC)c2c(-c3ccccc3)cc(=O)oc2c1C(CC(=O)N1CCOCC1)c1ccc(N(C)C)cc1 (centres undefined)	inconclusive: 17.8 µM [inhibitor, single point]	–
CCS(=O)(=O)N1CCN(C(=O)CC(C)C)CC1	inconclusive: 39.8 µM [inhibitor, single point]	–
Nc1cc(Nc2ccccc2)c2nonc2c1[N+](=O)[O-]	inconclusive: 89.1 µM [inhibitor, single point]	–
CC(C)CSC1=NSC2=NC(=O)/C(=C\c3coc4ccccc4c3=O)C(=N)N12	active: 44.7 µM	–
O=C(Nc1ccc2c(c1)OCCO2)c1ccc(CN2CCOCC2)cc1	inconclusive: 2.82 µM [inhibitor, partial curve, poor fit]	–
Cc1ccnc(Nc2nc(-c3ccc(O)c(O)c3)cs2)c1	inconclusive: 31.6 µM [inhibitor, partial curve]	–
CC(=O)c1ccc(NC(=O)CC2Oc3ccc(C)cc3NC2=O)cc1 (centres undefined)	inactive	–
COc1ccccc1N1CCN(Cc2nc(N)nc(Nc3ccc(C)c(Cl)c3)n2)CC1	inconclusive: 25.1 µM [inhibitor, partial curve]	–
COc1cc(O)cc2cc3c(c(O)c12)C(=O)CC(C)(O)O3 (centres undefined)	active: 50.1 µM	–
Cc1cc(C)n2nc(CNS(=O)(=O)c3ccccc3)nc2n1	inconclusive: 50.1 µM [inhibitor, partial curve]	–
CO/N=C(\Cn1ncc(N2CCCC2)c(Cl)c1=O)c1ccc(Cl)cc1	inconclusive: 0.141 µM [inhibitor, full curve, poor fit]	–

In the list so far, these have an NH in an aromatic ring.
SMILES	Potency	activity change, negative = inhibition
O=c1nc2c(O)cccn2c2c1c(=O)[nH]c1ccccc12	inconclusive: 3.16 µM [inhibitor, full curve]	–
Cc1ccc(-c2cc3c(N=O)c4ccccc4c-3n[nH]2)cc1	inconclusive: 3.98 µM [inhibitor, partial curve, poor fit]	–

Following part:

SMILES	Potency	activity change, negative = inhibition
CN(C)S(=O)(=O)c1ccc(C(=O)NCc2nnc(SCC(=O)NCc3ccco3)o2)cc1	inconclusive: 0.316 µM [inhibitor, full curve, poor fit]	–
CCOC(=O)c1ccc(NC(=O)Cn2c3ncccc3c(=O)n2-c2ccc(C)c(C)c2)cc1	inconclusive: 89.1 µM [inhibitor, single point]	–
CCCCN(C(=O)c1cccc(S(=O)(=O)N2CCN(Cc3ccccc3)CC2)c1)c1ccccc1	inconclusive: 35.5 µM [inhibitor, partial curve]	–
O=C(O)c1nnn(-c2cccc(C(F)(F)F)c2)c1-c1ccccc1	inconclusive: 79.4 µM [inhibitor, single point]	–
CCC1(C)Cc2c(sc3c2c2ncnn2c2nnc(SCC(=O)NCc4ccco4)n32)CO1 (centres undefined)	inconclusive: 20 µM [inhibitor, partial curve]	–
Cc1cccc(NC(=O)CN2C(=O)CSc3ccc(S(=O)(=O)N4CCCC4)cc32)c1C	inactive	–
O=C(O)c1cc(-c2ccc(-c3ccc(F)cc3)o2)nc2ccccc12	inactive	–
CCOc1ccccc1/C=N/Nc1nc2c(N)ncnc2n1[C@H]1O[C@@H](CO)[C@H](O)[C@@H]1O	inconclusive: 89.1 µM [inhibitor, single point]	–
CSc1nc(SCCO)c2sc3nc(-c4ccco4)c4c(c3c2n1)CC(C)(C)OC4	active: 1.58 µM	–
CCc1ccccc1NC(=O)Cn1nc(N2CCN(c3ccccc3OC)CC2)ccc1=O	inactive	–
O=C(NCC(=O)N(c1ccccc1)C(C(=O)NC1CCCC1)c1cccnc1)c1ccco1 (centres undefined)	inconclusive: 100 µM [inhibitor, single point]	–
CC(C)(C)NC(=S)NC(=O)C12CCC3CC(CC(C3)C1)C2	inactive	–
CCC(=O)c1ccc(OCC(=O)N2CCCC2)c(OC)c1	active: 22.4 µM	–
COc1cc(-c2nc(-c3ccc(NC(=O)c4ccc5c(c4)OCO5)cc3)no2)cc(OC)c1OC	inconclusive: 50.1 µM [inhibitor, partial curve]	–
O=C(CN1C(=O)/C(=C2\SC(=S)N(CCS(=O)(=O)O)C2=O)c2ccccc21)Nc1cccc(Br)c1	inconclusive: 31.6 µM [inhibitor, full curve, poor fit]	–
CCSc1nnc(NC(=O)/C=C/c2ccco2)s1	inconclusive: 35.5 µM [inhibitor, full curve]	–
CCOc1cc(/C=C2\N=C(SCC)SC2=O)cc([N+](=O)[O-])c1OC(C)=O	active: 15.8 µM	–
COc1ccc(-c2nn(-c3ccccc3)cc2C(=O)O)cc1	inactive	–
CCN1CCN(C(=O)C2=CC(c3ccc(C)cc3)=NS(=O)(=O)N2C)CC1	inconclusive: 89.1 µM [inhibitor, single point]	–
Cc1cnc(NC(=O)C2COc3ccccc3O2)s1 (centres undefined)	active: 50.1 µM	–
c1ccc(CN2CCN(CCOCCOc3cccc4ccccc34)CC2)cc1	inconclusive: 10 µM [inhibitor, partial curve]	–
CCCn1c(SCC(=O)N2CCN(C(C)=O)CC2)nc2sc3c(c2c1=O)CCC3	inactive	–
O=c1nc(N2CCOCC2)ccn1-c1nc(-c2ccccc2)oc1-c1ccccc1	inconclusive: 70.8 µM [inhibitor, single point]	–
